Experimental data published in the supplement of paper PMC11732987, “Enantioselective OTUD7B fragment discovery through chemoproteomics screening and high-throughput optimisation” (Communications Chemistry, 2025).
The other results are listed elsewhere or left out. The data scatter; read single values as rough.

Sequences of proteins named here, by UniProt entry; tags and fusion partners are left off. A change or cut given only in a name is not applied to a line headed by its entry. Residues count along the entry.
UniProt Q5SRE5, 1251-1272: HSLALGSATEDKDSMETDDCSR
UniProt O75665: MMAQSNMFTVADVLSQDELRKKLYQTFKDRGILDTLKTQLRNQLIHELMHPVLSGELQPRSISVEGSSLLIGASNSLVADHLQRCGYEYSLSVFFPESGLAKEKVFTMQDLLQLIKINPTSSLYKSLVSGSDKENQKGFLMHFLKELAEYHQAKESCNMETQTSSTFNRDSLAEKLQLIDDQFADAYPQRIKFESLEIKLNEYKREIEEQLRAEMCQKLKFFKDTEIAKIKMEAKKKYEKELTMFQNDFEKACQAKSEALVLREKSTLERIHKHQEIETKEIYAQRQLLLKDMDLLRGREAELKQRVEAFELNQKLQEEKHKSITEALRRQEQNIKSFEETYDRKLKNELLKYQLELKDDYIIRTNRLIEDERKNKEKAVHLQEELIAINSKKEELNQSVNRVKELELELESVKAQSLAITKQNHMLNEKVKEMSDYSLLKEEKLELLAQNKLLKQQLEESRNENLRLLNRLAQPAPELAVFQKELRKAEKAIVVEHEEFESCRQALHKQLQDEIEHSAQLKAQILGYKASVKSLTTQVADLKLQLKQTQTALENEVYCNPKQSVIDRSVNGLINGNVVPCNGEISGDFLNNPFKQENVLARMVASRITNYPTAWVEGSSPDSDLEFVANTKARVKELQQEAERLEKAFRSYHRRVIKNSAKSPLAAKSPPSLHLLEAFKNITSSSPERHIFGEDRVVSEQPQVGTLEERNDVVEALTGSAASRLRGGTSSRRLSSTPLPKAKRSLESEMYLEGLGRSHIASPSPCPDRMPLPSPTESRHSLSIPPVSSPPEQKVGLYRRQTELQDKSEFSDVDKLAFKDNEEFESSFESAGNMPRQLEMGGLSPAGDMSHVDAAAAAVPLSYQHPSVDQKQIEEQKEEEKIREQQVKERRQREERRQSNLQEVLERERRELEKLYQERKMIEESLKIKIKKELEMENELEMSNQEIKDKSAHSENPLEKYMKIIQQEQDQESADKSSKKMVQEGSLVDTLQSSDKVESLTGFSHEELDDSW
UniProt Q5W0B1: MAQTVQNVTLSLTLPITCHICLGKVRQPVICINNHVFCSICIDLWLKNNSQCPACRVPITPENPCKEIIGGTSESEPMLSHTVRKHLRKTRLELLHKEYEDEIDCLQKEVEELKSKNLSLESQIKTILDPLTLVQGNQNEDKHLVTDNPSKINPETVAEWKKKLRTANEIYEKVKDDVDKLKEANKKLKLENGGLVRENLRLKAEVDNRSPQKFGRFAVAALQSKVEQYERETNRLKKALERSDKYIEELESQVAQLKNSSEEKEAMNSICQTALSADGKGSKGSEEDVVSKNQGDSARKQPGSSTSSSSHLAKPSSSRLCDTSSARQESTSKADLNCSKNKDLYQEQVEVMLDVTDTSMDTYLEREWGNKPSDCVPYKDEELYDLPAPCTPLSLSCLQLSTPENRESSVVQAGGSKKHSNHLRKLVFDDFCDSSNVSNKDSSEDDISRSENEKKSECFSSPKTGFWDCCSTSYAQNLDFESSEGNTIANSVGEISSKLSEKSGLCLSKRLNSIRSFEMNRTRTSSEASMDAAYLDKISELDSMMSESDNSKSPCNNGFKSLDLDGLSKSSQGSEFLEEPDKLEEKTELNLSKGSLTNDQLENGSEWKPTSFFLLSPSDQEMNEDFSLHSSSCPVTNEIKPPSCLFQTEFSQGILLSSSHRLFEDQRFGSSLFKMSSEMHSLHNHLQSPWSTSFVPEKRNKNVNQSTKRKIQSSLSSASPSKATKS
UniProt Q8N1F7, 505-524: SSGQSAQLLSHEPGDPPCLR
UniProt Q8WV22: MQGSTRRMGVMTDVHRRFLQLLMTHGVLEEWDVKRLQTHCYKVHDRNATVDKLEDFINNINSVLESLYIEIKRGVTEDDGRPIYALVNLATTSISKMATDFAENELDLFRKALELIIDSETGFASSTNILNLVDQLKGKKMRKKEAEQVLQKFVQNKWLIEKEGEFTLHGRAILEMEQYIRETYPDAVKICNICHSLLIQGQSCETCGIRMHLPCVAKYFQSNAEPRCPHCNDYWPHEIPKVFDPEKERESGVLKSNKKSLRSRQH
UniProt O43847: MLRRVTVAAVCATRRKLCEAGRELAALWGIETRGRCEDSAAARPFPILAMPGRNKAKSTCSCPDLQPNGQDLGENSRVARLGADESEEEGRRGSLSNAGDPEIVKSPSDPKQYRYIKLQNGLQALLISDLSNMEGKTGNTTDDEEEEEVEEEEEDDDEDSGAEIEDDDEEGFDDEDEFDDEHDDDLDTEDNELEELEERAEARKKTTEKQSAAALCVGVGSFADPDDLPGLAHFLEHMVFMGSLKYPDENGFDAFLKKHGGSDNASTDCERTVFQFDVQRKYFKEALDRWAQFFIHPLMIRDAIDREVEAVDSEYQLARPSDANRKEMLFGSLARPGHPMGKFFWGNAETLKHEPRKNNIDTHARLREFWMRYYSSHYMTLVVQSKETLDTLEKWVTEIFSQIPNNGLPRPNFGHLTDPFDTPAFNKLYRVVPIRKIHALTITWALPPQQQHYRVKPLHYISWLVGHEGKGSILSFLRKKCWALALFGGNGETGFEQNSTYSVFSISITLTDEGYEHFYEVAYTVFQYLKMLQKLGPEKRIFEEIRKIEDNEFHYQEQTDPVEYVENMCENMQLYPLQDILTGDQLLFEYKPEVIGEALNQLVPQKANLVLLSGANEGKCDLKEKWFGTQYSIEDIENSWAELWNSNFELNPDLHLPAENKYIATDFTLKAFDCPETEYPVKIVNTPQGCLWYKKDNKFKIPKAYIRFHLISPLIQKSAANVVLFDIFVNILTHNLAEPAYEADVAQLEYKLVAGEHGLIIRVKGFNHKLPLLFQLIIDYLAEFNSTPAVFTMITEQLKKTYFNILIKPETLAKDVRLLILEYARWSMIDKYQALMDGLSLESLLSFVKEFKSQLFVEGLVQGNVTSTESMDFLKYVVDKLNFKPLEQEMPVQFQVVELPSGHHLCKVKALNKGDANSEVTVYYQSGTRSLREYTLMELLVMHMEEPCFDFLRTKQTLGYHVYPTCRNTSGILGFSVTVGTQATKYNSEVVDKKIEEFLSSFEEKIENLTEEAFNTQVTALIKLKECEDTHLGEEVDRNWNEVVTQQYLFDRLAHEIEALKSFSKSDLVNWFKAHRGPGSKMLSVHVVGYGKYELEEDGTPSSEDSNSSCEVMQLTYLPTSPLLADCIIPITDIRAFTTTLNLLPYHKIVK
UniProt Q96RS6: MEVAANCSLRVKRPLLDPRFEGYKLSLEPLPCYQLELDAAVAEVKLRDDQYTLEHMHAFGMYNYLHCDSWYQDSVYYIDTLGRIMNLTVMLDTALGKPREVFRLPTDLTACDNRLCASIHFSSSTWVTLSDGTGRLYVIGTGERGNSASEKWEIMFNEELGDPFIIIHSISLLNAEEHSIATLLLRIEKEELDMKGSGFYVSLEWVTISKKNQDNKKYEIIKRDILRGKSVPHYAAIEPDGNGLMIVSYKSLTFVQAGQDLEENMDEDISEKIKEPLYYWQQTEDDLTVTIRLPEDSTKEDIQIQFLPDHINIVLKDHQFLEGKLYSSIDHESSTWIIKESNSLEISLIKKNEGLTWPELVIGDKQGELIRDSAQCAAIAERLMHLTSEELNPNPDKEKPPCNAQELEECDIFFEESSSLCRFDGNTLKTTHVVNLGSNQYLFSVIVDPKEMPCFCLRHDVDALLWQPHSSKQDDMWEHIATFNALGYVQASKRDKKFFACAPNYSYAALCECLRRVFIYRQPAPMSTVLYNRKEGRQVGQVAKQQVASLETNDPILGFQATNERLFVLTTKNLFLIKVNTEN
UniProt Q9ULJ1: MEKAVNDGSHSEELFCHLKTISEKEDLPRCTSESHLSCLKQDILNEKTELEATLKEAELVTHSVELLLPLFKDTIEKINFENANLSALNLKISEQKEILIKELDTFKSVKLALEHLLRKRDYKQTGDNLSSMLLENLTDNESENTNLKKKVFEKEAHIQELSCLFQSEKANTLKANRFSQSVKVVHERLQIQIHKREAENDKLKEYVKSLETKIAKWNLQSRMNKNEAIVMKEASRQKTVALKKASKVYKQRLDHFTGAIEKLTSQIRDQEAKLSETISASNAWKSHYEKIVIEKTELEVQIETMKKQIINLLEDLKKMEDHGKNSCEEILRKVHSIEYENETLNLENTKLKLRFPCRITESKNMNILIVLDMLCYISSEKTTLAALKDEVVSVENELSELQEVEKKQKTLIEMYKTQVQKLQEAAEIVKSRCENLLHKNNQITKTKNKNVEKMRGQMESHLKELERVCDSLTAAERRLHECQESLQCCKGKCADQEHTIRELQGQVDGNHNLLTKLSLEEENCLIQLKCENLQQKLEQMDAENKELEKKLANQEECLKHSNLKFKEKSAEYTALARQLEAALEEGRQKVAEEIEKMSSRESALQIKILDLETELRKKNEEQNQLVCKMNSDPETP
UniProt Q14207: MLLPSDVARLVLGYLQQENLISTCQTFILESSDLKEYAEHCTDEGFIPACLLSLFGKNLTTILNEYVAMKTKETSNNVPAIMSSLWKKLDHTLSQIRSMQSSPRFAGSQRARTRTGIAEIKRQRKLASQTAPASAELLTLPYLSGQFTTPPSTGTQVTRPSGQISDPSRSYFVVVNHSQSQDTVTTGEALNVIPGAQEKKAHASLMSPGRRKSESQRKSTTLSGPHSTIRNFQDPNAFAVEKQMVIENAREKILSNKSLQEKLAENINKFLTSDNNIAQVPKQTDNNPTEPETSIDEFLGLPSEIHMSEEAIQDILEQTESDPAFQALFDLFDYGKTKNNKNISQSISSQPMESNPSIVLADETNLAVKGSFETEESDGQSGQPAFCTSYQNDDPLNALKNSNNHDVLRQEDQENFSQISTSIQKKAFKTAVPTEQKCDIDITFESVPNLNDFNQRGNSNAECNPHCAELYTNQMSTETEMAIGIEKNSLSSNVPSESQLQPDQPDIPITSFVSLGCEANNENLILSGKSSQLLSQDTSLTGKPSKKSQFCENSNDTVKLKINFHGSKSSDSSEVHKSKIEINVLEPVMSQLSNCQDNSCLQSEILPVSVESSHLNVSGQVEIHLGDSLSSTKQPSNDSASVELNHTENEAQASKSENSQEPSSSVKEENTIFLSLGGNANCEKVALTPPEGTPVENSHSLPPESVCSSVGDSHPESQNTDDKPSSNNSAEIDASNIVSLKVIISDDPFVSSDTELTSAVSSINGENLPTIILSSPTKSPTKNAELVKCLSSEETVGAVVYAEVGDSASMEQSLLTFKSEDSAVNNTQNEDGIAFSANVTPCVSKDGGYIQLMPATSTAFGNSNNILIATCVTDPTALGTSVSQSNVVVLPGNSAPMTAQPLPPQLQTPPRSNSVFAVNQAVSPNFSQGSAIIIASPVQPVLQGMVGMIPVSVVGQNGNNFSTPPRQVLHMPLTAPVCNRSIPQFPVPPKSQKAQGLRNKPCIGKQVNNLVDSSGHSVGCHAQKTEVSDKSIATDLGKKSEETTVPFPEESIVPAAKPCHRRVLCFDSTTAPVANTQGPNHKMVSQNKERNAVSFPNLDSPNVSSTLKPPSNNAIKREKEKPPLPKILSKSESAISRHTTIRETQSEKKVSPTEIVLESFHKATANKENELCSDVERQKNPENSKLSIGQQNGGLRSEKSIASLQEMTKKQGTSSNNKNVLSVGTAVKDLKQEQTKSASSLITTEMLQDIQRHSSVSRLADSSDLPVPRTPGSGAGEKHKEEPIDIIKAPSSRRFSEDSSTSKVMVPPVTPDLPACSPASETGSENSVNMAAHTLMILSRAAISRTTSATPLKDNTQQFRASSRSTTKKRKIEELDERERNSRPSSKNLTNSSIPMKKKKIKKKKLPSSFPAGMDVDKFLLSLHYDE
UniProt Q9NZT2: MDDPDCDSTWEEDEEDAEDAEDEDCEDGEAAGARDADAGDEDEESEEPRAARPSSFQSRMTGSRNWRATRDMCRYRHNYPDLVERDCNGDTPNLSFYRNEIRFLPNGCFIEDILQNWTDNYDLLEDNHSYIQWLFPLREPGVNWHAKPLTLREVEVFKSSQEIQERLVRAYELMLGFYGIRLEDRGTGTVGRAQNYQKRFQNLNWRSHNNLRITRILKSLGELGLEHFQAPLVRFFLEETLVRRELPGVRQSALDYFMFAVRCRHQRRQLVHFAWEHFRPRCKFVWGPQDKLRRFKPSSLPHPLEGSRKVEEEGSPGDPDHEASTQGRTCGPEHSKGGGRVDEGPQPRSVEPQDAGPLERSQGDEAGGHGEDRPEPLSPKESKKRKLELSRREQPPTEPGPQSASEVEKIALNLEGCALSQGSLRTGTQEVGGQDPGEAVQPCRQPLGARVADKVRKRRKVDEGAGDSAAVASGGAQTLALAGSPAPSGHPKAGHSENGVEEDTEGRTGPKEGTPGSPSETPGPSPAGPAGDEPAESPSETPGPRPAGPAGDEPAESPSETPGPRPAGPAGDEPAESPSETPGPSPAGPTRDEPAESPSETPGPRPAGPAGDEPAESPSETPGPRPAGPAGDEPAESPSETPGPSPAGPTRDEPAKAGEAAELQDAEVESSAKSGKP

Compound: ClCC(=O)N[C@@H]1CCCc2ccccc12
Assay: log2 mean competition ratio of IA-DTB cysteine labelling (DMSO/compound) (log2 ratio); higher = stronger cysteine engagement by compound
Conditions: 50 µM; treatment time: 4 h; cell line lysate: HEK293T
Protocol: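 IA-DTB competitive cysteine chemoproteomics in HEK293T RIPA lysate. Lysates were treated with compound 29 or 30 at 50 or 200 µM for 4 h, then IA-DTB (500 µM, 1 h), trypsin-digested, NeutrAvidin-enriched and analysed by diaPASEF. Competition ratio = intensity DMSO / intensity compound (n=4 treated, n=64 DMSO); binding: mean log2 CR ≥ 1 and p ≤ 0.05 plus QC filters. Target is the cysteine site.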

Row | Target | log2 mean competition ratio
1 | NUP188 C1270 (UniProt Q5SRE5) | -0.0571
2 | OFD1 C766 (UniProt O75665) | -0.00822
3 | NUP160 C529 (UniProt Q12769) | -0.152
4 | OBI1 C555 (UniProt Q5W0B1) | 0.104
5 | NUP93 C522 (UniProt Q8N1F7) | -0.0535
6 | NSMCE1 C40 (UniProt Q8WV22) | 0.465
7 | ORC5 C409 (UniProt O43913) | 0.365
8 | NUP98 C1027 (UniProt P52948) | -0.136
9 | NSD2 C38 (UniProt O96028) | 0.097
10 | NOTCH2 C1357 (UniProt Q04721) | -0.0919
11 | ODAD2 C553 | 0.102
12 | NRDC C674 (UniProt O43847) | 0.33
13 | OBI1 C432 (UniProt Q5W0B1) | -0.018
14 | OBI1 C458 (UniProt Q5W0B1) | 0.34
15 | OBI1 C105 (UniProt Q5W0B1) | 0.118
16 | NUDCD1 C376 (UniProt Q96RS6) | -0.0986
17 | ODF2L C16 (UniProt Q9ULJ1) | 0.225
18 | OSGEPL1 C216 (UniProt Q9H4B0) | -0.04
19 | NPAT C1002 (UniProt Q14207) | 0.327
20 | OGFR C87 (UniProt Q9NZT2) | 0.366

Same assay, conditions: 200 µM; treatment time: 4 h; cell line lysate: HEK293T

Row | Target | log2 mean competition ratio
21 | NUP188 C1270 (UniProt Q5SRE5) | -0.0228
22 | OFD1 C766 (UniProt O75665) | -0.0181
23 | NUP160 C529 (UniProt Q12769) | -0.519
24 | OBI1 C555 (UniProt Q5W0B1) | -0.139
25 | NUP93 C522 (UniProt Q8N1F7) | 0.211
26 | NSMCE1 C40 (UniProt Q8WV22) | -0.168
27 | ORC5 C409 (UniProt O43913) | 0.357
28 | NUP98 C1027 (UniProt P52948) | 0.07
29 | NSD2 C38 (UniProt O96028) | 0.137
30 | NOTCH2 C1357 (UniProt Q04721) | 0.203
31 | ODAD2 C553 | 0.339
32 | NRDC C674 (UniProt O43847) | -0.167
33 | OBI1 C432 (UniProt Q5W0B1) | 0.146
34 | OBI1 C458 (UniProt Q5W0B1) | 0.142
35 | OBI1 C105 (UniProt Q5W0B1) | 0.454
36 | NUDCD1 C376 (UniProt Q96RS6) | -0.00564
37 | ODF2L C16 (UniProt Q9ULJ1) | 0.0369
38 | OSGEPL1 C216 (UniProt Q9H4B0) | 0.783
39 | NPAT C1002 (UniProt Q14207) | -0.438
40 | OGFR C87 (UniProt Q9NZT2) | 0.187
